We go through 1 sequence from article PMC3715442.

The chains behind the UniProt entries cited, without tags or fusion partners. Where a name states a change or a piece, a line headed by the entry shows the natural chain unless it says otherwise.
UniProt P05412, whole entry: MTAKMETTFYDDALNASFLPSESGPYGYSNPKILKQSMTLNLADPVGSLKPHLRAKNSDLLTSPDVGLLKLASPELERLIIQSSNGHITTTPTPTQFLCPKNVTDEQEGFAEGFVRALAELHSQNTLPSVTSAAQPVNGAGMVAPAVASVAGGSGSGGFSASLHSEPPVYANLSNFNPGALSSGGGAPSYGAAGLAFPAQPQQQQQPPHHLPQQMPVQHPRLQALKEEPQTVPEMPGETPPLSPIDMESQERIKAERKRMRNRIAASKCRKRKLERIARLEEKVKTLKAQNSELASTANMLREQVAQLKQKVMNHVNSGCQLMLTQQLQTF
UniProt P17535: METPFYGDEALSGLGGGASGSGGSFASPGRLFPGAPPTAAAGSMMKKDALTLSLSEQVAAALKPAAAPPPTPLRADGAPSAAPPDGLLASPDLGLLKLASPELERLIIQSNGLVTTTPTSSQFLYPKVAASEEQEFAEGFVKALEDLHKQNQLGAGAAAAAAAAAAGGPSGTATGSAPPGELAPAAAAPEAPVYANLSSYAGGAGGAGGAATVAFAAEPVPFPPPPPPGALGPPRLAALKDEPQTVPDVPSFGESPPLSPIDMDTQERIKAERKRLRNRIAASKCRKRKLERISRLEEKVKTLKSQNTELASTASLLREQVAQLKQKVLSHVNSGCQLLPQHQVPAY

Construct, isoform or probe ends are uncertain for at least one entry. Where cells or extracts were used, other partners may take part. At least one verdict rests on a figure or table, not on a statement of the authors.

In one series the target is c-Jun (UniProt P05412). Put plainly: EMSA supershift. The note with it: c-Jun antibody; 1x EMSA binding buffer (composition not given), 1 ug poly-dIdC, 10 ug nuclear extract, 2 ug antibody for supershift, room temperature 30 min, 4% TBE gel; protein in an extract; label: 32P 5' end (T4 PNK). On the technique in general: A gel shift assay detects complexes by their altered migration in electrophoresis.

The next series deals with JunD (UniProt P17535). Description: EMSA supershift. The note with it: JunD antibody; 1x EMSA binding buffer (composition not given), 1 ug poly-dIdC, 10 ug nuclear extract, 2 ug antibody for supershift, room temperature 30 min, 4% TBE gel; protein in an extract; label: 32P 5' end (T4 PNK).

For “ACTTCGGTGACTTCATCCACC (double strand) [rs12190287-C]”, the binding result in the series with c-Jun and in the series with JunD was “binds” each time.
